Publication PMC11284787, “Ligand-Directed Labeling of the Adenosine A1 Receptor in Living Cells” (Journal of Medicinal Chemistry, 2024)

Tested on: T1, SNAP-hA1AR
T1 construct: expressed in transfected cells; host or cells: HEK293T, transient transfection (FuGENE HD)
Test: Fluorescence correlation spectroscopy on SNAP-hA1AR HEK293T cell membranes
Type: cell-based, human
Conditions: 100 nM 90 min

**Q.** With `CCCCn1c(=O)c2[nH]c(C34CCC(C(=O)NCCNC(=O)CCNC(=O)c5ccc(OC(=O)CCCCC[N+]6=C(/C=C/C=C/C=C7/N(C)c8ccc(S(=O)(=O)O)cc8C7(C)C)C(C)(C)c7cc(S(=O)(=O)[O-])ccc76)c(F)c5)(CC3)CC4)nc2n(CCCC)c1=O` [Compound 11, 1-(6-(4-((3-((2-(4-(1,3-Dibutyl-2,6-dioxo-2,3,6,7-tetrahydro-1H-purin-8-yl)bicyclo[2.2.2]octane-1-carboxamido)ethyl)amino)-3-oxopropyl)carbamoyl)-2-fluorophenoxy)-6-oxohexyl)-3,3-dimethyl-2-((1E,3E)-5-((E)-1,3,3-trimethyl-5-sulfoindolin-2-ylidene)penta-1,3-dien-1-yl)-3H-indol-1-ium-5-sulfonate] as the compound, how does the “expression level detected in labeled cells, range” value read?
**A.** 4–45 particles per μm^2

**Q.** What about the “average expression level detected in labeled cells” value (mean ± SEM) of the same compound?
**A.** 17.9 ± 1.62 particles per μm^2
